In patent US20090068110A1, “ANTIBODIES TO INSULIN-LIKE GROWTH FACTOR RECEPTOR” (Genentech, Inc., priority 2006, published 2009):
No constants are given. Whether binding was seen depends on the method and setting. A result given as binding can be weak or reduced; the word gives no strength.

Biological target: cynomolgus-monkey IGF-1R (cynomolgus monkey)
Assay: SPR (BIACORE 3000), IgG as analyte, values in FIG. 15

binding: binds
B1: chimeric 10H5-IgG (antibody, V domains shown)
VH: QVQLQQPGAELVKPGASVTLSCKASGYTFTRFWIHWVKQRPGQGLEWIGEINPSNGRTNYNENFKNKATLTVDTSSSTAYMQLSSLTSEVSVVYYCARGGRLDQWGQGTT
VL: DIVMTQSQKFMSTSLGDRVSVTCKASQNVGSNVAWYQQKPGQSPEALIYSASYRYSGVPDRFTGSGSGTDFTLTISNVQSEDLAEYFCHQYNNYPYTFGGGTKVEIKR
